Measured values: PMC10256737
Results are given in words; binding and its absence hold for the method and conditions named. In cells and extracts the contact can be indirect. Some binding calls cover weakened binding; strength is not graded here.

Target: T1, Capping actin protein, gelsolin-like (CAPG) (human (endogenous in THP-1)) (UniProt P40121)
T1 sequence: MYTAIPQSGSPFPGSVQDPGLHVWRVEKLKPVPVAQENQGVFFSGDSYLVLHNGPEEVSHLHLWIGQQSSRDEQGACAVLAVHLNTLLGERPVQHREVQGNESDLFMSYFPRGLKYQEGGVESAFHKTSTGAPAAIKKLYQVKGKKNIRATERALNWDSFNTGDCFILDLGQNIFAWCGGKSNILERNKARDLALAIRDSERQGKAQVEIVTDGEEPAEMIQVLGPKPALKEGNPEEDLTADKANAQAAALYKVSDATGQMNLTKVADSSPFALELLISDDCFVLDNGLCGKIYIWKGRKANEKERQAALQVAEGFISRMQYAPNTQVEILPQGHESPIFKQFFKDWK
Experiment: co-IP; co-IP of CAPG with RPL4, ZFP91, CCAR2 (Fig. 3c); cells, antibodies and direction not told in the text shown

binding: binds
B1: ZFP91 (protein, UniProt Q96JP5 1-570)
chain: MPGETEEPRPPEQQDQEGGEAAKAAPEEPQQRPPEAVAAAPAGTTSSRVLRGGRDRGRAAAAAAAAAVSRRRKAEYPRRRRSSPSARPPDVPGQQPQAAKSPSPVQGKKSPRLLCIEKVTTDKDPKEEKEEEDDSALPQEVSIAASRPSRGWRSSRTSVSRHRDTENTRSSRSKTGSLQLICKSEPNTDQLDYDVGEEHQSPGGISSEEEEEEEEEMLISEEEIPFKDDPRDETYKPHLERETPKPRRKSGKVKEEKEKKEIKVEVEVEVKEEENEIREDEEPPRKRGRRRKDDKSPRLPKRRKKPPIQYVRCEMEGCGTVLAHPRYLQHHIKYQHLLKKKYVCPHPSCGRLFRLQKQLLRHAKHHTDQRDYICEYCARAFKSSHNLAVHRMIHTGEKPLQCEICGFTCRQKASLNWHMKKHDADSFYQFSCNICGKKFEKKDSVVAHKAKSHPEVLIAEALAANAGALITSTDILGTNPESLTQPSDGQGLPLLPEPLGNSTSGECLLLEAEGMSKSYCSGTERVSLMADGKIFVGSGSSGGTEGLVMNSDILGATTEVLIEDSDSAGP
